The list shows a part of the results. Most values come without repeats; read them as rough.

For this experiment, the system named is Saccharomyces cerevisiae BY4743. Put plainly: growth (OD600) relative to untreated control; higher = less growth inhibition. The note with it: compound concentration: 133 uM; 20 h. Here is the method: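 NMCCC compounds (133 uM, no IPBC) tested alone against Saccharomyces cerevisiae BY4743 in YPD, 96-well plates, starting OD600 ~0.1. Growth was read as OD600 at 20 h and expressed as % of the untreated control. Single pass.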
`CCC1=CC=C(C=C1)C2=N[NH]C(=N2)SC\C3=C\C(=O)\C(=C/O3)O` registered a growth of 92.2%.

For `CCN(Cc1ccncc1)Cn1c(=O)oc2ccccc21`, the growth worked out at 88.8%.

Compound `Cc1nn(C)c(C)c1CCC(=O)NCc1nnc2ccc(C(F)(F)F)cn12` showed a growth of 96.5%.

Turning to `Cn1ccc(S(=O)(=O)N2CCC(C(=O)Nc3ccccc3OCC(F)(F)F)CC2)c1`, the growth was 108%.

`CCSc1ncc(Cl)c(C(=O)Nc2nc(C)c(C(=O)OCC(C)C)s2)n1` registered a growth of 103%.

Compound `O=C(COC(=O)c1ncc(Cl)c(Cl)c1Cl)NC(=O)c1ccccc1` yielded a growth of 97.1%.

`Oc1cccc2ccc(/C=C/c3ccc(Br)o3)nc12` showed a growth of 71.2%.

In turn, `COC(=O)C[C@H](NC(=O)N1CCSCC1c1ccc(OC)cc1)C(=O)OC` (some centres undefined) displayed a growth of 103%.

`COc1ccc(-c2cnn3c(C(F)(F)F)cc(C(F)(F)F)nc23)cc1OC` gave a growth of 102%.

In the case of `Cc1nn(C)c(C)c1NS(=O)(=O)c1cccc(C#N)c1`, the growth turned out to be 104%.

`O=C(C1CCS(=O)(=O)C1)N1CCc2ccccc21` (centres undefined) showed a growth of 93.6%.

The compound `COc1ccc(CN(C)C(=O)c2sc(NC(=O)c3ccco3)cc2C)c(OC)c1` yielded a growth of 93.6%.

Compound `COc1ccccc1CCNC(=O)CSc1nnnn1Cc1ccccc1` yielded a growth of 112%.

With `CCOC(=O)c1cc(C)n(CC2CCC(C(=O)Nc3ccccc3OCC)CC2)c1C` (centres undefined), the growth is 96%.

Compound `CCN(CC(=O)Nc1ccccc1C(F)(F)F)C(=O)CSCC(=O)Nc1cc(C)on1` had a growth of 98.7%.

`NC(=O)NC(CC(=O)OCC(=O)c1ccc(F)cc1)c1ccccc1Cl` (centres undefined) returned a growth of 103%.

In turn, `Cc1noc(C)c1CSCC(=O)NC1CCN(Cc2ccccn2)CC1` displayed a growth of 99.2%.

`COC(=O)c1ccccc1S(=O)(=O)NCc1nc2nc(C)cc(C)n2n1` registered a growth of 105%.

Compound `COC1=CC=C(OC)C(=C1)NC(=O)CN2\C=C/N(CC3=CC=C(C)C=C3)C(=O)C2=O` yielded a growth of 101%.

In turn, `COC(=O)c1sc2nc(C)nc(N(C)Cc3cccnc3)c2c1C` displayed a growth of 106%.

Regarding `CCN(CC)S(=O)(=O)c1cc(-c2nnc(O)c3ccccc23)ccc1C`, the growth was 101%.

Compound `Cc1ccc(C(=O)Nc2ccc(-c3nccs3)cc2)s1` displayed a growth of 91.4%.

`CC(C)N(C(=O)CSc1nnc(-c2cccnc2)n1-c1cccc(C(F)(F)F)c1)C(C)C` registered a growth of 108%.

On to `Cc1cc2nc(O)c(O)nc2cc1S(=O)(=O)NCc1ccco1`, for which the growth worked out at 103%.

`COc1ccc(C)cc1NC(=O)CC(C)(C(=O)O)c1ccccc1` (centres undefined) yielded a growth of 105%.

The compound `CCOc1ccc(CNC(=O)C(C)n2nc(C)c3ccccc32)cc1OC` (centres undefined) displayed a growth of 102%.

The compound `O=C(c1cc(Cl)ccn1)N1CCOc2ccccc21` returned a growth of 107%.

For `O=C(Nc1cc(Cl)ccc1-n1cncn1)c1cncc(Br)c1`, the growth is 65.3%.

Consider `CCc1ccc(OC(C)C(=O)Nc2ccc3nsnc3c2)cc1` (centres undefined), for which the growth was found to be 102%.

Regarding `CCC(C)c1ccc(NC(=O)c2cnn3c(C(F)F)cc(C)nc23)cc1` (centres undefined), the growth worked out at 97.4%.

The compound `Cc1nc(C)c(-c2nnc(SC(C)C(=O)NC3CCCCCC3)o2)s1` (centres undefined) had a growth of 102%.

`Cc1nc(C)c(C(=O)OCc2ccc(C#N)cc2)s1` showed a growth of 86%.

Take `CC(C)CCNC(=O)CS\C1=N\C2=C(SC=C2)C(=O)N1NC(=O)C3=CC=CC=C3`: the growth turned out to be 97.3%.

Compound `Cc1nc2ccc(S(=O)(=O)NC(CC(C)C)C(=O)N3CCCCCC3)cc2s1` (centres undefined) came in with a growth of 107%.

As to `CN(CC(=O)Nc1cccc(Cl)c1)S(=O)(=O)c1ccc(-c2ccc(O)nn2)s1`, the growth is 107%.

The compound `Nc1cn(-c2ccc(C(F)(F)F)cn2)nc1Cl` showed a growth of 100%.

For the compound `CCCOc1c(Br)cc(C(=O)OCC(=O)N(C)C2CCS(=O)(=O)C2)cc1OC` (centres undefined), the growth was determined as 101%.

The compound `CC1=CC\2=C(C=C1C)N(CC(=O)NCC3=CC=C(Cl)C=C3)C(=O)\C(=N2)C(F)(F)F` came in with a growth of 88.6%.

Regarding `COCCN1\C=C(NC(=O)C2=CC3=C(CCC(C3)C(C)(C)C)S2)/C=C\C1=O` (centres undefined), the growth came to 111%.
